Paper PMC7328155
These are yes or no findings as the source states them, for the method shown. In cells and extracts the contact can be indirect. Some binding calls cover weakened binding; strength is not graded here.

Sequences of proteins named here, by UniProt entry; tags and fusion partners are left off. A change or cut given only in a name is not applied to a line headed by its entry.
UniProt Q96CV9: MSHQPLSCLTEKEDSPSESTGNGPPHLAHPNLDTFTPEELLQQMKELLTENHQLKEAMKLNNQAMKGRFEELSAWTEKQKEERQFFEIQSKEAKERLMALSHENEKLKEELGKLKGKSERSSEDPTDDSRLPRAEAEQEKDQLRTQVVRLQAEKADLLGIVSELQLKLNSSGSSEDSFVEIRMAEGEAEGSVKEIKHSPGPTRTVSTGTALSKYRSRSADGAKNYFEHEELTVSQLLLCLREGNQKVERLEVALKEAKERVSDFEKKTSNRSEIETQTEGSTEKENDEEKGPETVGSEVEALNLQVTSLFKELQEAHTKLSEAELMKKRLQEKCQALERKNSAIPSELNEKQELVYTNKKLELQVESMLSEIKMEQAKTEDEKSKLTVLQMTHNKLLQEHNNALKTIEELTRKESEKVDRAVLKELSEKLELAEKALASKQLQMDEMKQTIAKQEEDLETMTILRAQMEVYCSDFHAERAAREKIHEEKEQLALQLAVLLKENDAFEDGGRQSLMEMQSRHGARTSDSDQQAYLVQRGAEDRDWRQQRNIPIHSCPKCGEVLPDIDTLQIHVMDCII
UniProt Q96EP0: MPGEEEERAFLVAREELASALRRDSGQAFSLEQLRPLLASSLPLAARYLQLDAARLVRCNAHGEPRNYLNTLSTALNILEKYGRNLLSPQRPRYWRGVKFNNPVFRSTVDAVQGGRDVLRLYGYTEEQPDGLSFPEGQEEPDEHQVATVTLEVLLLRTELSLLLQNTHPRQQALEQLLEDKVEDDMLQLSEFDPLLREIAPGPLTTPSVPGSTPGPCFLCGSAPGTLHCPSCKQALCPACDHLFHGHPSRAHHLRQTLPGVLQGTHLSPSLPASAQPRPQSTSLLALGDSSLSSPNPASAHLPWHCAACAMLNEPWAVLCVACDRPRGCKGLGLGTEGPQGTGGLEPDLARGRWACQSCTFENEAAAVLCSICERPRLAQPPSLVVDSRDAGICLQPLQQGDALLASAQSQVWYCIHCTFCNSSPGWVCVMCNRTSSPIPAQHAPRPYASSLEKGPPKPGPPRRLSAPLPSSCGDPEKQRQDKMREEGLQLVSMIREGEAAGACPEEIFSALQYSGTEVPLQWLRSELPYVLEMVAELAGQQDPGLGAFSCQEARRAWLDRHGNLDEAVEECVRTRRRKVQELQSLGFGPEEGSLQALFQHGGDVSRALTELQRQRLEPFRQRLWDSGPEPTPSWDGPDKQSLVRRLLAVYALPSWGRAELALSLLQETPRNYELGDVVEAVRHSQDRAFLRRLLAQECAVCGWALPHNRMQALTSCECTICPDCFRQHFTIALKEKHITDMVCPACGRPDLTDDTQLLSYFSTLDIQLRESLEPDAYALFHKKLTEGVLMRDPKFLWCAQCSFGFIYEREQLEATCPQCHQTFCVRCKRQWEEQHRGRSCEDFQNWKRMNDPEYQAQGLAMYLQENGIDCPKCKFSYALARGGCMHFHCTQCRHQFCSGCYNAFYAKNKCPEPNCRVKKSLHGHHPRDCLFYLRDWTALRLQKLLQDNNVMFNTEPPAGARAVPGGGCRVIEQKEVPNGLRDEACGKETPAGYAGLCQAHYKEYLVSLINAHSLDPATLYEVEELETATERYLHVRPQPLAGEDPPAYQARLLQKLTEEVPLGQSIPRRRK

Legend:
Test in all cases: co-IP; GFP immunoprecipitation (GFP-nanobody Affi-gel resin, 3 h) from lysates of HEK293T cells transiently co-transfected with GFP–OPTN variants and HA–HOIP; 1% NP-40 lysis buffer (50 mM Tris-HCl pH 7.5, 150 mM NaCl, 1 mM EDTA); blots probed with GFP and HA antibodies
GFP–OPTN wild-type = GFP–OPTN wild-type (UniProt Q96CV9)
GFP–OPTN E50K = GFP–OPTN E50K (UniProt Q96CV9)
GFP–OPTN E478G = GFP–OPTN E478G (UniProt Q96CV9)

binding (GFP–OPTN wild-type): binds
binding (GFP–OPTN E50K): binds
binding (GFP–OPTN E478G): no binding
Substance: HA–HOIP (from UniProt Q96EP0 1-1072)
